Results published in paper PMC4027206, “Crystal structure of Saccharomyces cerevisiae mitochondrial GatFAB reveals a novel subunit assembly in tRNA-dependent amidotransferases” (Nucleic Acids Research, 2014).
Results are given in words; binding and its absence hold for the method and conditions named. Some entries that bind do so weakly or less than the wild type. Sequences can lack the tags named with a protein.

T1: GatB subunit of S. cerevisiae GatFAB lacking the helical and YqeY domains (GatBΔHY, residues 16–329) (S. cerevisiae) (UniProt P33893)
T1 sequence: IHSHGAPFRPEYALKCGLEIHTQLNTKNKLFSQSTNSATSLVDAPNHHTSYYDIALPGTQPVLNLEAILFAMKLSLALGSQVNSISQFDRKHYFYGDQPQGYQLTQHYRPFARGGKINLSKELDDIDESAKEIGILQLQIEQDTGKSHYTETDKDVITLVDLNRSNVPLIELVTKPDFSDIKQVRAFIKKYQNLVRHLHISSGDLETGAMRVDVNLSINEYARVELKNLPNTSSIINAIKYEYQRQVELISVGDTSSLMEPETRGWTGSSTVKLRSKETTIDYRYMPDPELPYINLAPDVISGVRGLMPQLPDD

T2: GatA subunit of Saccharomyces cerevisiae mitochondrial GatFAB (S. cerevisiae) (UniProt Q03557)
T2 sequence: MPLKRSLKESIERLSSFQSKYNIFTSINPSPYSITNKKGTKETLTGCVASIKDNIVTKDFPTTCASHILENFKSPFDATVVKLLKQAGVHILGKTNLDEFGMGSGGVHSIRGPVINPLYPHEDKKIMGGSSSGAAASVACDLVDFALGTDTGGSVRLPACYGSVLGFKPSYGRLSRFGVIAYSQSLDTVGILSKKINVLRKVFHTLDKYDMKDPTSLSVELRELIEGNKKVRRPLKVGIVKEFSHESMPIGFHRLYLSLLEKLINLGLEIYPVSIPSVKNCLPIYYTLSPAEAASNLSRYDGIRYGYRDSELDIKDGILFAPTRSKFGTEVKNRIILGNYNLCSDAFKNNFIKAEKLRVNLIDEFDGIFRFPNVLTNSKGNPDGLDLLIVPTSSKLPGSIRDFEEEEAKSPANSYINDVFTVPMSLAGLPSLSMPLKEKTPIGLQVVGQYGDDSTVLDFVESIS

T3: GatB subunit of S. cerevisiae GatFAB with both C-terminal domains (GatB 16–541), His-tagged (S. cerevisiae) (UniProt P33893)
T3 sequence: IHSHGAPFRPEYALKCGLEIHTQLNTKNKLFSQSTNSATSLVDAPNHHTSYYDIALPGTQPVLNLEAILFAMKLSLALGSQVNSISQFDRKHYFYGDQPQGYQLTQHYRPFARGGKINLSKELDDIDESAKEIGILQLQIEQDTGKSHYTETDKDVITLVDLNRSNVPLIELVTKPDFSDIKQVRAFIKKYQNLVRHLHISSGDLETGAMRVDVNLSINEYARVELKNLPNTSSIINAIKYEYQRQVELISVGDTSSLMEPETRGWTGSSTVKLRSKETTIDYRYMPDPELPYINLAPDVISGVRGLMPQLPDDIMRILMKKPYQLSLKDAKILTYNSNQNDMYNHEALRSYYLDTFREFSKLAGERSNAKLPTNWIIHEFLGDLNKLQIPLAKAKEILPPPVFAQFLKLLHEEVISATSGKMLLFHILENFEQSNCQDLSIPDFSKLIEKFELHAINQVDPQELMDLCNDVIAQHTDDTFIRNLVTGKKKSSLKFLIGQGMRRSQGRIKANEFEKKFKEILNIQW

B1: GatF subunit of S. cerevisiae GatFAB without the mitochondrial targeting sequence (GatF 24–183) (domain or fragment, UniProt P53260 24-183)
chain: FVSTGGAKIGKKFENMNQIRDYLSRPVWSVHEYLGINTKEEKLEPPSAEAVKKLLRLSGLPLEGADIKEIQMRLAKQLSFINKLHNIPVEGEKHTKEYDARLVQRNTKQLNYTKLLEGISHQKQDAELGEVSGSWKATGLAAESKNAYFVVKEGLLKNRK
B2: GatA subunit of Saccharomyces cerevisiae mitochondrial GatFAB (enzyme, UniProt Q03557 1-464)
chain: T2 sequence
B3: GatF N-terminal deletion mutant GatF 37–183 (domain or fragment, UniProt P53260 37-183)
chain: ENMNQIRDYLSRPVWSVHEYLGINTKEEKLEPPSAEAVKKLLRLSGLPLEGADIKEIQMRLAKQLSFINKLHNIPVEGEKHTKEYDARLVQRNTKQLNYTKLLEGISHQKQDAELGEVSGSWKATGLAAESKNAYFVVKEGLLKNRK
B4: GatF N-terminal deletion mutant GatF 47–183 (domain or fragment, UniProt P53260 47-183)
chain: SRPVWSVHEYLGINTKEEKLEPPSAEAVKKLLRLSGLPLEGADIKEIQMRLAKQLSFINKLHNIPVEGEKHTKEYDARLVQRNTKQLNYTKLLEGISHQKQDAELGEVSGSWKATGLAAESKNAYFVVKEGLLKNRK

Experiments:
[1] = target: T1, GatB subunit of S. cerevisiae GatFAB lacking the helical and YqeY domains (GatBΔHY, residues 16–329) (S. cerevisiae); assay: crystal structure; GatFABΔHY heterotrimer, free and Gln-bound (10 mM glutamine) forms; sitting drop vapor diffusion at 20°C; 50 mM sodium malonate, 200 mM Mg(NO3)2, 10–13% PEG3350; both purified
[2] = target: T2, GatA subunit of Saccharomyces cerevisiae mitochondrial GatFAB (S. cerevisiae); assay: as above
[3] = target: T3, GatB subunit of S. cerevisiae GatFAB with both C-terminal domains (GatB 16–541), His-tagged (S. cerevisiae); assay: co-purification by the His-tag; GatF mutant, GatA and His-tagged GatB co-expressed in E. coli from the gatFAB operon; purified with MagneHis; Coomassie blue-stained protein gel

Binder | binding [1] | binding [2] | binding [3]
B1 | binds | binds | 
B2 | binds |  | binds
B3 |  |  | binds
B4 |  |  | binds
